The values below come from publication PMC5029927.

Assay in all cases: affinity purification with mass spectrometry; tandem affinity purification (TAP) with TAP-tagged Fbx15, Fbx15(P12S), SconB and SconB(P200S), LC-MS/MS; modified protocol in S1 Text
Assay [1] has as its target T1, SconB-TAP (Aspergillus fumigatus) (UniProt B0XTS1).
T1 sequence: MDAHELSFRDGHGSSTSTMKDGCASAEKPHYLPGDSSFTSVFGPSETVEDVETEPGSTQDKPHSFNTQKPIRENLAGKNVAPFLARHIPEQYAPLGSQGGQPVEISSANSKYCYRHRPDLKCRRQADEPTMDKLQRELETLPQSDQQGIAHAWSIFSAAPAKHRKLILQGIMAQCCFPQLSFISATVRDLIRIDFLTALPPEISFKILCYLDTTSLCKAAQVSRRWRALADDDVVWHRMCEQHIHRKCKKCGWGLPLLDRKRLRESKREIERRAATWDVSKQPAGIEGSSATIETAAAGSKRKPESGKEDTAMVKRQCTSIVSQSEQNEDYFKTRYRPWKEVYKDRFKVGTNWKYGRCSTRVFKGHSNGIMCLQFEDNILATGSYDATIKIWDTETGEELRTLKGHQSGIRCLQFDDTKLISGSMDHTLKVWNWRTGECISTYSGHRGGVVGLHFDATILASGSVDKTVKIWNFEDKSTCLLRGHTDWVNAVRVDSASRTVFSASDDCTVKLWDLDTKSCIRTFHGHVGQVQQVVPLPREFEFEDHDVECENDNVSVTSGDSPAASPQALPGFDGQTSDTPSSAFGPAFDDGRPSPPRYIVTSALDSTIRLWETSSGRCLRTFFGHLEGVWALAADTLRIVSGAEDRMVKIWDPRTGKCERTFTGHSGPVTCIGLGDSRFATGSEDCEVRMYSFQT

Assay [2] has as its target Fbx15-TAP (Aspergillus fumigatus) (UniProt Q4WYT1).
Assay [3] shares this target. This is another data set of the same source.

Read-outs that look alike come from different tables or passages of the source. Results are given in words; binding and its absence hold for the method and conditions named. Binding seen in cells or lysates may run through a third protein. Here binding means that the protein was enriched with, or labelled near, the bait; the list need not be complete. For some of these results: A no says only that the protein was not detected with the bait.

Take RcoA: the binding result in assay [1] is on record as “binds”. “single-stranded DNA binding protein (AFUA_5G07890/Rim1p) (from UniProt Q4WUB7)”: the binding entry in assay [2] and in assay [1] was “binds” each time. Consider SsnF, for which, in assay [1], the binding entry was “no binding”. SkpA: the binding entry in assay [1] is given as “binds”.

CulA: the binding result in assay [1] is “binds”. As to “DNA repair enzyme (AFUA_2G06140) (from UniProt Q4WHA0)”, the binding result in assay [2] and in assay [1] was “binds” throughout. As for MetR, the binding entry in assay [1] is given as “binds”.

B1: SrbB (protein, UniProt Q4W9W8 1-299)
chain: MAYNNRPDASTAFTFDNDDRFVNQQPKGPDPLSANWSYDSAIDLFSLNTMLPETFPLDIPNDMLLDPKDFPTDLFAPPADISGFAISHSGEDSLSSDQESEDQPWSPAYRVSSLDSTTPDAPTVSPRSTEKPATRRRTTTQKREQATRWSSSPEMTPQEYPVTSQATTSPAPAPVSPPAASTSRKNSRSLSTDSQTATGRNAAKRAAHNIIEKRYRTNMNAKFVALEKAMSGSGVQKPTKGGSGPASLKKSEILTNAIAYMQELQDQNAALQKELALLKQNLLPGGLWRHNKENDKFRT
For B1, the binding result in assay [3] is on record as “binds”.
